# PubChem BioAssay AID504774 | Drosophila RNAi Screening Center | 2011
# Assay: 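Knock-downs that shift viability of MMS-exposed cells relative to untreated ones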 (primary screen)
# Cell system: Drosophila Kc167 cells
# Reagents: long dsRNA against Drosophila genes, about 0.25 µg dsRNA per well
# Timing: about 6 days: 3 days knock-down, then 3 days with or without MMS
# Treatment: methyl methanesulphonate 0.004% (w/v) for 3 days after knock-down
# Detection: 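ATP-dependent luminescence as a measure of live cells in MMS-exposed wells, quantile normalised within each plate, with replicate values also given as a mean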
# Direction: mean viability with MMS: higher = more surviving cells after MMS
# The deposit covers about 23,000 reagents; this is an unselected part of those with a known target gene and a result. 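Values are quantile-normalised luminescence on an arbitrary scale; higher means more cells surviving MMS.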 A plus sign joins genes that one reagent is predicted to hit. Not all columns of the deposit are shown.
target gene,amplicon,mean viability with MMS
Prat2 (GeneID 38753),DRSC09692,3.64e6
Cpr49Ae (GeneID 36351),DRSC07201,3.48e6
Ctf4 (GeneID 36551),DRSC06380,3.72e6
CG8834 (GeneID 36356),DRSC07283,3.55e6
CG42445 (GeneID 8674111),DRSC10858,3.50e6
rpr (GeneID 40015),DRSC11390,3.61e6
Mdr65 (GeneID 38726),DRSC11220,3.50e6
Ptth (GeneID 33238),DRSC00356,3.54e6
CG3226 (GeneID 31597),DRSC18296,3.60e6
CG14684 (GeneID 41281),DRSC14907,3.64e6
CG8818 (GeneID 36375),DRSC07275,3.62e6
Recs1 (GeneID 41724),DRSC16545,3.47e6
RpS6 (GeneID 31700),DRSC18712,2.46e6
Gr22f (GeneID 117349),DRSC00076,3.59e6
CG13724 (GeneID 39927),DRSC10053,3.30e6
CG30414 (GeneID 37705),DRSC04372,3.47e6
CG13258 (GeneID 34959),DRSC02244,3.39e6
Osi16 (GeneID 318801),DRSC12135,3.44e6
Osi16 (GeneID 318801),DRSC21323,3.58e6
CG6885 (GeneID 40041),DRSC10740,3.37e6
wake (GeneID 42676),DRSC16148,3.76e6
wake (GeneID 42676),DRSC16149,3.71e6
Cyp4c3 (GeneID 43663),DRSC16631,3.38e6
Drep4 (GeneID 34734),DRSC03408,3.61e6
CG3108 (GeneID 31506),DRSC18280,3.60e6
pkaap (GeneID 34957),DRSC01925,3.50e6
CG4613 (GeneID 39586),DRSC10435,3.45e6
CG4456 + Hsp22,DRSC11187,3.64e6
CG4456 + Hsp22,DRSC11192,3.64e6

Continued (4 carried over from the part before).
target gene,amplicon,mean viability with MMS
pkaap (GeneID 34957),DRSC01925,3.50e6
CG4613 (GeneID 39586),DRSC10435,3.45e6
CG4456 + Hsp22,DRSC11187,3.64e6
CG4456 + Hsp22,DRSC11192,3.64e6
wds (GeneID 53428),DRSC18852,3.82e6
caup (GeneID 39440),DRSC11334,3.05e6
caup (GeneID 39440),DRSC23050,3.54e6
Srpk79D (GeneID 40461),DRSC11668,3.68e6
Srpk79D (GeneID 40461),DRSC11856,3.44e6
RhoGAP1A (GeneID 5740235),DRSC20649,3.63e6
RhoGAP1A (GeneID 5740235),DRSC20651,3.66e6
CG33158 (GeneID 39834),DRSC09708,1.89e6
CG33158 (GeneID 39834),DRSC09709,3.51e6
CG33158 (GeneID 39834),DRSC10438,3.54e6
CG18586 (GeneID 38659),DRSC10325,3.42e6
Gmer (GeneID 37638),DRSC04376,3.67e6
CG10151 (GeneID 36639),DRSC05974,3.47e6
emc (GeneID 38091),DRSC08715,1.37e6
emc (GeneID 38091),DRSC23238,3.67e6
crq (GeneID 33219),DRSC00810,3.56e6
CG11905 (GeneID 39895),DRSC09863,3.71e6
